Experimental data published in PubChem BioAssay AID2685 (National Center for Advancing Translational Sciences (NCATS), 2010).
The list shows a part of the results. These are further read-outs of the screen, such as a control signal, another cell line or another target. No call is given for them. The list favours compounds with an active or inconclusive main result. Potencies come from curve fits of mixed quality, noted in brackets.

Experiment: qHTS Assay for Lipid Storage Modulators in Drosophila S3 Cells;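 on cell number change: cells counted by Cell Tracker Red CMTPX staining in the red channel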
Conditions: BODIPY lipid droplet fluorescence, 18-24 h; for cell number change: measured here: cell count max response, cells fed with added oleic acid
How it was run: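 Drosophila S3 cells got compounds at several concentrations plus oleic acid (400 uM solution). Laser-scanning cytometry with 488 nm excitation read lipid droplets at 500-530 nm and cells at 575-640 nm. Percent activity was relative to 20 uM Triacsin C.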

[1] = measured here: cell number channel AC50, cells fed with added oleic acid
[2] = measured here: lipid fluorescence (Fed channel) AC50, cells fed with added oleic acid

| Structure (SMILES) | cell number change [%] | AC50 [1] | AC50 [2] |
| --- | --- | --- | --- |
| Cc1c(C(=O)NCc2cccnc2)sc2nc(-c3ccc(F)cc3)cn12 | -114 | – | – |
| Cc1nc(Cc2nnc(SC(C)C(=O)N3c4ccccc4NC(=O)C3(C)C)o2)cs1 (stereo unspecified) | 34.5 | 5.8 µM [rising, full curve, poor fit] | 0.00517 µM [falling, full curve, poor fit] |
| CCOc1ccc2ncc(C(=O)c3ccc(OC)cc3)c(N3CCN(CC)CC3)c2c1 | 13.6 | – | – |
| CNC(=O)C1CCC(=O)N1Cc1ccccc1Cl (stereo unspecified) | – | – | 25.9 µM [falling, partial curve] |
| CCCn1c(N)c(C(=O)COC(=O)c2c(C)noc2C)c(=O)n(C)c1=O | -42.2 | 9.2 µM [falling, partial curve] | 2.91 µM [falling, single point] |
| COc1ccc(N(C)S(=O)(=O)c2cccc(C(=O)Nc3ccc(-n4cnnn4)cc3)c2)cc1 | 17.1 | 0.164 µM [falling, full curve, poor fit] | – |
| Cc1cccc(NC(=O)COC(=O)c2ccc3c(c2)OCO3)c1C | – | 0.259 µM [rising, full curve] | – |
| NC(=O)CSc1nnc(-c2cc(-c3cccs3)nc3ccccc23)o1 | – | – | 29.1 µM [rising, single point] |
| O=C1CC(Sc2nnc(-c3ccccc3O)o2)C(=O)N1c1ccccc1 (stereo unspecified) | -37.6 | 23.1 µM [falling, single point] | 25.9 µM [falling, single point] |
| C#CCn1c(O)c(N=NC(=O)C(O)c2ccccc2)c2ccccc21 (stereo unspecified) | 35.5 | – | 0.231 µM [rising, full curve, poor fit] |
| CCCCC1CCC(C(=O)NCc2ccc3c(c2)OCO3)CC1 (stereo unspecified) | -33.2 | 0.651 µM [falling, full curve] | – |
| CN(C)/C=N/c1ncn(-c2ncc(C(F)(F)F)cc2Cl)n1 | -3.76 | – | – |
| COc1ccc(C(=O)OCC(=O)Nc2ccc3c(c2)OCCO3)c(OC)c1 | -0.519 | – | – |
| c1ccc(C2=Nc3ccccc3OC2)cc1 | -4.96 | – | – |
| CCCCOC(=O)Nc1cc(OC)c(Cl)cc1OC | -34.2 | 25.9 µM [falling, single point] | – |
| Cc1ccccc1OCC(=O)Nc1ccc2c(c1)COC2=O | 39.8 | 9.2 µM [rising, partial curve] | 3.66 µM [rising, single point] |
| CCOC(=O)c1c(-c2cccs2)csc1NC(=O)CN1CCOCC1 | – | 2.59 µM [rising, partial curve] | 5.8 µM [rising, single point] |
| COc1ccccc1C(CCNCc1ccc(N(C)C)cc1)c1ccc(OC(C)C)cc1 (stereo unspecified) | -61.9 | 13 µM [falling, partial curve] | 18.4 µM [falling, partial curve] |
| Cn1c(=O)c(C(=O)NC2CCCCCC2)c(O)c2ccccc21 | 12.2 | – | 29.1 µM [falling, single point] |
| Cc1cc(Cl)ccc1NC(=O)CCC(=O)O | 106 | 4.11 µM [rising, full curve] | 29.1 µM [rising, single point] |

| Structure (SMILES) | cell number change [%] | AC50 [1] | AC50 [2] |
| --- | --- | --- | --- |
| COCc1cc(C)nc(NC2CCCCC2)c1C#N | -26.1 | – | 16.4 µM [falling, single point] |
| Cc1ccc(C(=O)COc2ccc3ccc(=O)oc3c2)cc1 | 7.62 | – | 6.51 µM [falling, single point] |
| COc1ccc(-c2cc(C(=O)NCCCN3CCCC3=O)c3ccccc3n2)cc1OC | – | – | 0.103 µM [falling, full curve, poor fit] |
| Cc1ccc(C(=O)Nc2nncs2)cc1S(=O)(=O)N1CCOCC1 | -25.8 | 0.291 µM [falling, full curve, poor fit] | 29.1 µM [falling, single point] |
| COc1cccc(CC(=O)Nc2nc(-c3cccnc3)cs2)c1 | 16.9 | – | 0.116 µM [rising, full curve, poor fit] |
| COCCSc1ccccc1C(=O)N1CCc2ccccc2C1 | 6.46 | – | – |
| COC(=O)c1ccc(=O)n(Cc2ccco2)c1 | -5.15 | 0.13 µM [rising, full curve, poor fit] | 0.0291 µM [rising, full curve, poor fit] |
| CCCNC(=O)CCn1c(-c2ccc(C)cc2)cc(C(=O)OCC)c1C | 46.7 | 18.4 µM [rising, single point] | – |
| Cc1ccc(NC(=O)CCC(=O)NNC(=S)Nc2ccc(F)cc2)c(C)c1 | 3.04 | – | 29.1 µM [rising, partial curve, poor fit] |
| O=C(COC(=O)Cc1ccc(S(=O)(=O)N2CCOCC2)s1)NCc1ccccc1 | 0.486 | – | 0.731 µM [falling, full curve] |
| Cc1ccc(S(=O)(=O)N(C)CCCC(=O)n2nc(C)cc2C)cc1 | -24.8 | 4.11 µM [falling, single point] | 2.31 µM [falling, full curve] |
| Cc1ccc(NC(=O)Cc2nc(CCl)cs2)cc1 | 4.77 | 0.731 µM [falling, partial curve, poor fit] | – |
| O=C(Nc1cccc(Oc2c(F)c(F)c(F)c(F)c2F)c1)N1C[C@@H]2C[C@@H](C1)c1cccc(=O)n1C2 | -3.41 | – | 2.06 µM [rising, full curve, poor fit] |
| Nc1nc(CN2CCN(c3ccccc3F)CC2)nc(Nc2ccccc2)n1 | – | 2.31 µM [rising, partial curve] | 2.59 µM [rising, full curve] |
| CC(=O)NC12CC3CC(C1)CC(C(=O)N1CCN(S(=O)(=O)c4ccc(C(C)C)cc4)CC1)(C3)C2 | 1.81 | – | 0.164 µM [rising, full curve, poor fit] |
| O=C(Nc1cccc2ccccc12)C(=O)C1C(=O)Nc2ccccc21 (stereo unspecified) | 14.4 | – | 4.11 µM [rising, full curve, poor fit] |
| Cc1ccc2cc(C(c3nnnn3C3CCCC3)N3CCOCC3)c(=O)[nH]c2c1C (stereo unspecified) | -14.1 | 7.31 µM [falling, single point] | 6.51 µM [falling, single point] |
| CN(C(=O)c1ccc2c(c1)C(=O)N(CCC1=CCCCC1)C2=O)C1CCCCC1 | -38.1 | 32.6 µM [falling, single point] | 23.1 µM [falling, partial curve] |
| COc1ccc(OC)c(NC(=O)CSc2nc(C)cs2)c1 | 51.3 | 4.61 µM [rising, full curve] | 0.58 µM [rising, single point] |
| CC(Sc1nc(-c2ccccc2)cc(C(F)(F)F)n1)C(=O)N1CCOCC1 (stereo unspecified) | -32.4 | 9.2 µM [falling, partial curve] | 9.2 µM [falling, partial curve] |

| Structure (SMILES) | cell number change [%] | AC50 [1] | AC50 [2] |
| --- | --- | --- | --- |
| C=CCc1cccc2cc(C(=O)NNC(=O)CC#N)c(=O)oc12 | 25.7 | – | 2.31 µM [rising, full curve] |
| CCOc1ccc(CCNC(=O)COC(=O)Cn2nc(C)c([N+](=O)[O-])c2C)cc1OCC | 4.31 | – | 23.1 µM [falling, partial curve, poor fit] |
| NC(=O)C1CCN(CC(=O)Nc2ccc(S(=O)(=O)N3CCOCC3)cc2)CC1 | 6.96 | – | – |
| Clc1ccccc1-c1nc2ccccc2c2nncn12 | 45.5 | 7.31 µM [rising, partial curve] | – |
| O=C(Nc1ccc(S(=O)(=O)Nc2ncccn2)cc1)C12CC3CC(CC(C3)C1)C2 | -2.79 | – | 3.66 µM [falling, partial curve] |
| O=C(Nc1cccc(C(F)(F)F)c1)C1CCCN(c2ncccn2)C1 (stereo unspecified) | 9.29 | 0.366 µM [rising, partial curve, poor fit] | – |
| O=C(/C=C/c1ccc(Cl)cc1)NCc1cccs1 | 35.1 | 20.6 µM [rising, single point] | 18.4 µM [rising, single point] |
| Cc1ccc(/C=N/NC(=S)N2CCOCC2)cc1 | 14.2 | – | 16.4 µM [rising, partial curve, poor fit] |
| CN1C(C(=O)NCc2cccc(C(F)(F)F)c2)CC2Cn3c(nc4cc(Cl)c(Cl)cc43)C21 (stereo unspecified) | 10.8 | – | – |
| Cc1cc(N)c(-n2cc3c(=O)n(C)c(=O)n(C)c3c2)cc1C | 13.6 | – | 1.46 µM [rising, full curve] |
| CCc1ccc(C2C(C#N)=C(N)Oc3cc(N)ccc32)cc1 (stereo unspecified) | – | – | 29.1 µM [falling, single point] |
| CN(C)N1C(N)=C(C#N)C(c2ccccc2)C2=C1CC(C)(C)CC2=O (stereo unspecified) | 21.2 | – | 0.184 µM [rising, full curve] |
| Cc1ccccc1-n1c(SCC(=O)N2CCC(C(=O)O)CC2)nnc1-c1ccncc1 | 21 | – | – |
| CC(C)(C)N(Cc1ccccc1)C(=O)COC(=O)C1CCN(c2ccc(C(F)(F)F)cn2)CC1 | -21.6 | – | – |
| O=C(O)c1ccc(Nc2ncc([N+](=O)[O-])cc2[N+](=O)[O-])cc1 | -50.6 | 6.51 µM [falling, single point] | 6.51 µM [falling, single point] |
| CCOc1ccc(CN(C)C(=O)CNC(=O)Cc2cccc3ccccc23)cc1 | -6.05 | – | – |
| COc1ccc(C(C[N+](=O)[O-])c2c(-c3ccccc3)cc3ccccn23)cc1 (stereo unspecified) | -45.4 | 0.0231 µM [falling, full curve, poor fit] | 0.82 µM [falling, full curve, poor fit] |
| C=CCn1c(SCC(=O)Nc2ccc(C)cc2C)nnc1-c1cccnc1 | 5.73 | – | 6.51 µM [rising, full curve, poor fit] |

A run of entries of the results above:

| Structure (SMILES) | cell number change [%] | AC50 [1] | AC50 [2] |
| --- | --- | --- | --- |
| O=C(Nc1cccc(C(F)(F)F)c1)C1CCCN(c2ncccn2)C1 (stereo unspecified) | 9.29 | 0.366 µM [rising, partial curve, poor fit] | – |
| O=C(/C=C/c1ccc(Cl)cc1)NCc1cccs1 | 35.1 | 20.6 µM [rising, single point] | 18.4 µM [rising, single point] |
| Cc1ccc(/C=N/NC(=S)N2CCOCC2)cc1 | 14.2 | – | 16.4 µM [rising, partial curve, poor fit] |
